The source of these data is US7317002B2 (Applied Research Systems ARS Holding N.V., priority 1997, dated 2008).

The series is described as follows: general procedure: Fmoc solid-phase peptide synthesis; PAL-PEG-PS; HBTU. The conditions noted are these: whole synthesis, analytical HPLC, scale approx. 70 μmols.

Where only a bound is given, the exact number is not on record here.

Take “[N^α-isopropyl-Tyr^1,Lys(Alloc)^12]-hGRF(1-29)—NH2”: the “final HPLC purity” value is on record as greater than 95%.
